Results deposited as PubChem BioAssay AID1224830 (NIAID, 2016).

Aim: 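Host factors that control LPS-induced TNF expression in human macrophages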 (primary screen)
Cells: human THP-1 monocytic leukaemia cells, TNF dual-luciferase reporter clone, PMA-differentiated to macrophage-like cells
Reagent: siRNA pool against human genes, 50 nM
Duration: LPS for 4 h, given about 3 days after siRNA transfection
Challenge: bacterial LPS (TLR4 ligand), 10 ng/ml
Read-out: 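TNF firefly reporter luminescence divided by renilla, normalised to the plate median, then turned into a robust z-score for each replicate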
Direction: TNF reporter robust z-score: higher = stronger TNF reporter response to LPS
Hit rule: 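Each well counts as active if its z-score is over 2.8 or under -1.5; controls are left without a call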
The whole screen tested about 18,000 reagents; this is an unselected part. In the full data, about 2,900 (16%) were called active. 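Calls are made per well; low scores hint the gene aids the LPS response, high scores that it dampens it.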 Repeated entries: four replicate wells of each siRNA pool.

ATP12A → TNF reporter robust z-score: -0.83; outcome: inactive
ATP12A → TNF reporter robust z-score: -1.28; outcome: inactive
ATP12A → TNF reporter robust z-score: -0.91; outcome: inactive
ATP12A → TNF reporter robust z-score: 0.71; outcome: inactive
CT55 → TNF reporter robust z-score: -0.35; outcome: inactive
CT55 → TNF reporter robust z-score: 0.38; outcome: inactive
CT55 → TNF reporter robust z-score: -0.24; outcome: inactive
CT55 → TNF reporter robust z-score: 0.24; outcome: inactive
DGCR2 → TNF reporter robust z-score: 0.19; outcome: inactive
DGCR2 → TNF reporter robust z-score: -0.68; outcome: inactive
DGCR2 → TNF reporter robust z-score: -0.64; outcome: inactive
DGCR2 → TNF reporter robust z-score: 1.05; outcome: inactive
YIPF2 → TNF reporter robust z-score: 0.98; outcome: inactive
YIPF2 → TNF reporter robust z-score: 1.52; outcome: inactive
YIPF2 → TNF reporter robust z-score: 0.18; outcome: inactive
YIPF2 → TNF reporter robust z-score: 1.3; outcome: inactive
DDX51 → TNF reporter robust z-score: -0.97; outcome: inactive
DDX51 → TNF reporter robust z-score: -1.02; outcome: inactive
DDX51 → TNF reporter robust z-score: -0.98; outcome: inactive
DDX51 → TNF reporter robust z-score: -0.14; outcome: inactive
GK2 → TNF reporter robust z-score: -0.71; outcome: inactive
GK2 → TNF reporter robust z-score: -1.2; outcome: inactive
GK2 → TNF reporter robust z-score: -1.22; outcome: inactive
GK2 → TNF reporter robust z-score: -1.03; outcome: inactive
PRPF38A → TNF reporter robust z-score: -1.29; outcome: inactive
PRPF38A → TNF reporter robust z-score: -1.48; outcome: inactive
PRPF38A → TNF reporter robust z-score: -1.32; outcome: inactive
PRPF38A → TNF reporter robust z-score: -1.46; outcome: inactive
ZNG1E → TNF reporter robust z-score: 1.41; outcome: inactive
ZNG1E → TNF reporter robust z-score: -0.05; outcome: inactive
ZNG1E → TNF reporter robust z-score: 0.22; outcome: inactive
ZNG1E → TNF reporter robust z-score: -0.34; outcome: inactive

8 entries from above, set out differently:
gene,TNF reporter robust z-score,outcome
DDX51,-1.02,inactive
DDX51,-0.98,inactive
DDX51,-0.14,inactive
GK2,-0.71,inactive
GK2,-1.2,inactive
GK2,-1.22,inactive
GK2,-1.03,inactive
PRPF38A,-1.29,inactive

More reagents:
GALNT3 → TNF reporter robust z-score: -0.35; outcome: inactive
GALNT3 → TNF reporter robust z-score: -0.01; outcome: inactive
GALNT3 → TNF reporter robust z-score: -0.45; outcome: inactive
GALNT3 → TNF reporter robust z-score: -0.7; outcome: inactive
ACTR6 → TNF reporter robust z-score: 0.39; outcome: inactive
ACTR6 → TNF reporter robust z-score: 1.12; outcome: inactive
ACTR6 → TNF reporter robust z-score: -0.3; outcome: inactive
ACTR6 → TNF reporter robust z-score: -0.34; outcome: inactive
DERL3 → TNF reporter robust z-score: -0.8; outcome: inactive
DERL3 → TNF reporter robust z-score: -0.56; outcome: inactive
DERL3 → TNF reporter robust z-score: -1; outcome: inactive
DERL3 → TNF reporter robust z-score: -0.63; outcome: inactive
FAM167B → TNF reporter robust z-score: 2.56; outcome: inactive
FAM167B → TNF reporter robust z-score: 0.13; outcome: inactive
FAM167B → TNF reporter robust z-score: 0.66; outcome: inactive
FAM167B → TNF reporter robust z-score: -0.86; outcome: inactive
DAXX → TNF reporter robust z-score: 6.1; outcome: active
DAXX → TNF reporter robust z-score: 1.53; outcome: inactive
DAXX → TNF reporter robust z-score: 0.92; outcome: inactive
DAXX → TNF reporter robust z-score: 2.84; outcome: active
CRIP2 → TNF reporter robust z-score: -0.19; outcome: inactive
CRIP2 → TNF reporter robust z-score: 0.56; outcome: inactive
CRIP2 → TNF reporter robust z-score: 0.92; outcome: inactive
CRIP2 → TNF reporter robust z-score: 0.33; outcome: inactive
BMP15 → TNF reporter robust z-score: 2.12; outcome: inactive
BMP15 → TNF reporter robust z-score: -0.96; outcome: inactive
BMP15 → TNF reporter robust z-score: 1.81; outcome: inactive
BMP15 → TNF reporter robust z-score: -0.84; outcome: inactive
